Experimental data from patent publication US20250320184A1 (SIRONAX LTD., priority 2022, published 2025).
Structures were worked out from names or drawings and are uncertain.

Protein sequences, listed by entry. Tags and fused reporters are not part of them. Residues count along the entry.
UniProt Q6SZW1, 50-724 limits assumed: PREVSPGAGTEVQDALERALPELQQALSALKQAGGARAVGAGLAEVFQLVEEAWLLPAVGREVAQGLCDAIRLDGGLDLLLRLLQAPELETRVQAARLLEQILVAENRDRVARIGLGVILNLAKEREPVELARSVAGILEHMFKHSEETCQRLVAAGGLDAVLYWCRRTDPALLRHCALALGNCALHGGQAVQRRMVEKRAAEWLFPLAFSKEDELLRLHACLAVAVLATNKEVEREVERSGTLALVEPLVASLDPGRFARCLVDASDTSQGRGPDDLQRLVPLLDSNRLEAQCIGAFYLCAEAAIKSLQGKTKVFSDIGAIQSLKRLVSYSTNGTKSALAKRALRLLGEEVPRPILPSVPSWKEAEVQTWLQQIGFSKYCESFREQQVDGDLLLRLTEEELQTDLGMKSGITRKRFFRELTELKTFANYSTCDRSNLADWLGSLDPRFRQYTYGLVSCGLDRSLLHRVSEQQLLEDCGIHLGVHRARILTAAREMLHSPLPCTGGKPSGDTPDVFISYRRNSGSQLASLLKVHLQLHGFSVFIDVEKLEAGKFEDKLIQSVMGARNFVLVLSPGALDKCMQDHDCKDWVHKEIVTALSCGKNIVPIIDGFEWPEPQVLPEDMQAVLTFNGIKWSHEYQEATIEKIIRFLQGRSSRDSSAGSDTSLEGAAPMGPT

Target: SARM1 (50-724) (Homo sapiens, UniProt Q6SZW1)
Assay: SARM1 (50-724) enzymatic assay
Details: SARM1 inhibitory activity; purified SARM1 (50-724) 2 nM, 200 μM NMN activator, 100 μM NAD+ substrate, LC-MS/MS

Cc1ccc(NS(=O)(=O)c2cccc(F)c2C)cc1C(N)=O
IC50: > 1 µM
